# Microarray screen: hit calls

Source: the ROBIN nucleic acid binder screens (doi:10.1002/anie.202211358).

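Compounds were printed on reactive glass slides in duplicate spots, a dye-labelled oligonucleotide was laid over them, and the fluorescence left after washing was read. For the PreQ1, TPP and SAM-II riboswitches the laboratory earlier reported (doi:10.1038/s41467-019-09493-3) 1 µM RNA, 2 h, and a rule that included a mean Z-score above 3 (spot signal-to-noise against the whole library), a score well above that on a control array, and duplicate spots agreeing (coefficient of variation under 100). The data file gives only the calls; its cut-offs may differ, and compounds hitting several targets are kept. These are primary screening calls, not affinities; a compound without a hit may have attached poorly or may still bind in solution.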
“active” means called a hit, “inactive” means screened and not called a hit.
The compounds are a random part of those screened.
A dash means that no call is listed here.

Targets, with sequences 5′ to 3′:
TPP: TPP riboswitch RNA three-way junction, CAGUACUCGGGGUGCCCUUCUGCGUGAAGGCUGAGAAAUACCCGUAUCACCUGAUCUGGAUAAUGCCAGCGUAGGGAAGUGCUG. About 24,000 compounds screened, about 160 hits.
PreQ1: PreQ1 riboswitch RNA pseudoknot, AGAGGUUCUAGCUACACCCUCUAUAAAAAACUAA. From B. subtilis. About 24,000 compounds screened, about 170 hits.
SAM-II: SAM-II riboswitch RNA pseudoknot, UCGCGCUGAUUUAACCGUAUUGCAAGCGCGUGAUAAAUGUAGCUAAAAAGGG. About 21,000 compounds screened, about 200 hits.

| SMILES | TPP | PreQ1 | SAM-II |
|---|---|---|---|
| `Cc1cnccc1CN(C)Cc1cc2n(n1)CCCNC2` | inactive | inactive | inactive |
| `CC1(C)OC(C)(C)c2c1sc(N)c2C#N` | inactive | inactive | inactive |
| `CCc1cccc(Nc2ncnc3c2nc2n3CCCCC2)c1` | inactive | inactive | - |
| `OC(c1cc(-c2ccc(Cl)cc2)nc2ccccc12)C1CCCCN1` (stereo unspecified) | inactive | inactive | inactive |
| `O=C1N[C@H]2[C@H](O)[C@H](O)[C@@H](O)[C@H](O)[C@@H]2c2cc3c(c(O)c21)OCO3` | inactive | inactive | inactive |
| `Cc1cc(NC2CCCC2)nc2ccccc12` | inactive | inactive | inactive |
| `CC(C)(C)OC(=O)C(N)CCCCNC(=O)OCc1ccccc1` (stereo unspecified) | inactive | inactive | inactive |
| `Cc1cc(Nc2ccc(Cl)cc2)n2nc(-c3cccnc3)nc2n1` | inactive | inactive | - |
| `NC(=O)c1ccc2[nH]ccc2c1` | inactive | inactive | inactive |
| `N#Cc1c(N)sc2c1CCCCCCCCCC2` | inactive | inactive | inactive |
| `CC(C)(C)NCCOc1ccc(Br)cc1.Cl` | inactive | inactive | inactive |
| `Cc1ccc(NC(=O)[C@@H]2CNC[C@H](C(=O)NCc3ccncn3)C2)cn1` | inactive | inactive | inactive |
| `CS(=O)(=O)c1ccc(C(=O)N2CCC3(CC2)OCCCC3O)cc1` (stereo unspecified) | inactive | inactive | inactive |
| `CCOC(=O)c1c(N)sc2c(NC(C)=O)cccc12` | inactive | inactive | inactive |
| `Cc1cc(Nc2cccc(C)c2C)n2nc(C)nc2n1` | inactive | inactive | inactive |
| `Cc1nc2sc(C(=O)OCc3ccccc3)c(N)c2c(C)c1Cl` | inactive | inactive | inactive |
| `N#Cc1ccccc1CSc1nnc(N)s1` | inactive | inactive | inactive |
| `CC(C)CNc1ncnc2c1sc1nc(-c3ccco3)c3c(c12)CC(C)(C)OC3` | inactive | inactive | inactive |
| `Nc1nc(O)cc(N2CCN(Cc3ccc(-n4cncn4)cc3)CC2)n1` | inactive | inactive | inactive |
| `COc1ccc(-c2cncc(N)c2)cc1CO` | inactive | inactive | inactive |
| `Nc1nnc(Cc2ccccc2)s1` | inactive | inactive | active |
| `O=S(=O)(c1ccccc1)c1nc(-c2ccco2)oc1NCCCn1ccnc1` | inactive | inactive | - |
| `Cc1cc(C)c2nc(C)cc(Nc3cccc(C(=O)O)c3)c2c1` | inactive | inactive | inactive |
| `CCOC(=O)c1cnc2ccc(C(=O)OC)cc2c1Nc1ccccc1OCC` | inactive | inactive | inactive |
| `O=C1CCC2(CCCN(Cc3ccc(C(F)(F)F)nc3)C2)CN1CCCO` (stereo unspecified) | inactive | inactive | inactive |
| `Cc1ccc(C(=O)c2c(N)c(C(=O)Nc3cccc(F)c3)c3ccccn23)cc1` | inactive | inactive | - |
| `COc1cc(CNc2nc3c(C)cc(C)cc3s2)ccc1O` | inactive | inactive | inactive |
| `Nc1cc(O)nc2nnc(SCc3ccc(Cl)cc3Cl)n12` | inactive | inactive | inactive |
| `CCc1n(CC(O)COc2ccccc2OC)c2ccccc2[n+]1C` (stereo unspecified) | inactive | inactive | inactive |
| `Cc1cc(C)n2c(Nc3ccc4c(c3)OCCO4)c(-c3cccs3)nc2n1` | inactive | inactive | inactive |
| `COc1cccc(C(O)CNC(=O)c2ccc(C)c(N3CCNC3=O)c2)c1` (stereo unspecified) | inactive | inactive | inactive |
| `OC(COc1ccc2ccccc2c1Cl)CN1CCN(c2ccc(F)cc2)CC1` (stereo unspecified) | inactive | inactive | inactive |
| `Cc1ccc(C)c(NC(=O)CCNC(C)C(=O)Nc2nccs2)c1` (stereo unspecified) | inactive | inactive | inactive |
| `COc1cccc(NC(c2ccccc2)c2nnc(-c3ccccc3Cl)o2)c1` (stereo unspecified) | inactive | inactive | inactive |
| `CCN(CC)C(=O)[C@@H]1C[C@@H](N)CN1C(=O)c1scc2c1OCCO2` | inactive | inactive | inactive |
| `c1coc(C(Cn2ccnc2-c2cc3n(n2)CCCNC3)N2CCCC2)c1` (stereo unspecified) | inactive | inactive | inactive |
| `Nc1nnc(Sc2nccc3ccccc23)s1` | inactive | inactive | inactive |
| `O=C(c1cnn2cc(CCO)cnc12)N(Cc1cccnc1)C1CCCCC1` | inactive | inactive | inactive |
| `CCCn1c(CCCO)nc2ccccc21` | inactive | inactive | inactive |
| `N=C(N)NC(=N)Nc1ccc(O)cc1` | inactive | inactive | inactive |
| `CCOC(=O)c1c(N)sc(C(=O)N2CCCCCC2)c1C` | inactive | inactive | inactive |
| `COc1ccc(OC)c(NC(=O)CCN[C@@H]2C[C@H]3CC[C@@H]2C3)c1` | inactive | inactive | inactive |
| `O=C(CC1=CCNCC1)N1CCC(c2cc(Cc3ccccc3)n[nH]2)CC1` | inactive | inactive | inactive |
| `Cc1ccc(C(=O)O)cc1NCc1ccc2c(c1)n(C)c(=O)n2C` | inactive | inactive | - |
| `CCOc1ccc(-c2nccn2C2CCCC2)cc1CO` | inactive | inactive | inactive |
| `O=C(CC1Nc2ccccc2NC1=O)Nc1ccc(C(F)(F)F)cc1` (stereo unspecified) | inactive | inactive | inactive |

Once more, the final 3:

SMILES,TPP,PreQ1,SAM-II
Cc1ccc(C(=O)O)cc1NCc1ccc2c(c1)n(C)c(=O)n2C,inactive,inactive,-
CCOc1ccc(-c2nccn2C2CCCC2)cc1CO,inactive,inactive,inactive
O=C(CC1Nc2ccccc2NC1=O)Nc1ccc(C(F)(F)F)cc1 (stereo unspecified),inactive,inactive,inactive